Measured values as given in PubChem BioAssay AID504648 (National Center for Advancing Translational Sciences (NCATS), 2011).
Among all 390,000 compounds or so, about 610 (0.16%) were called active. Inconclusive results, whose numbers are uncertain, are shown with a selection of clear calls. Calls follow the shape of the dose curve; as a rule, active = well fitted inhibition curve with a large enough effect; inconclusive = small, poorly fitted or top-dose-only effect, or effect the other way, or another doubt; inactive = no such curve, though single readings can be large or run the other way. Potencies beside an inconclusive call are fits to weak or partial responses and may not hold up.

Experiment: Nrf2 qHTS screen for inhibitors: counterscreen for cytotoxicity
Conditions: A549 ARE-Fluc cells, CellTiter-Fluor viability, 18-24 h; activity change, negative = cytotoxicity: at 46 µM (top of the series)
Summary of the method: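 Cytotoxicity counterscreen: CellTiter-Fluor fluorescence was measured in A549 ARE_Fluc cells after 18-24 h of compound exposure in a concentration series. The subsequent BugLite luminescent read reports ARE-luciferase activity.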
% is scaled to controls: 0 for no effect and ±100 for the full control effect; potency is read from the fitted curve at half-maximal effect.

Row | Structure (SMILES) | Potency | activity change, negative = cytotoxicity
1 | COc1c(C(=O)Nc2ccc(Cc3ccncc3)cc2)ccc2ccccc12 | inconclusive: 23.1 µM [falling, single point] | –
2 | Nc1ccc(Br)c2c1C(=O)c1ccccc1C2=O | inconclusive: 29.1 µM [falling, single point] | –
3 | COc1ccc2cc(C(=O)NCc3ccc4c(c3)CCN4C(=O)c3ccc(C)cc3)[nH]c2c1 | – | inconclusive: -52.2% [activator]
4 | Cc1c(N2C(=O)/C(=C\c3ccc(N(C)C)cc3)N(C)C2=S)c(=O)n(-c2ccccc2)n1C | active: 14.6 µM | –
5 | COc1ccc(-c2nnc(SCc3csc(N)n3)n2C)cc1 | – | inactive: -1.66%
6 | COc1ccc(NC(=O)CSc2nc(O)c(C/C=C/c3ccccc3)c(=O)[nH]2)cc1 | – | inactive: 3.13%
7 | CCC(c1nnnn1CCc1ccccc1)N(Cc1ccco1)Cc1cc2c(C)ccc(C)c2[nH]c1=O (stereo unspecified) | inconclusive: 18.4 µM [falling, single point] | –
8 | NC(=O)c1cc([N+](=O)[O-])ccc1NCCN1C(=O)c2ccc(C(=O)O)cc2C1=O | inconclusive: 23.1 µM [falling, single point] | –
9 | CCN(CC(=O)Nc1ccc(NC(C)=O)cc1)C(=O)CCCOc1ccc(C(C)(C)C)cc1 | inconclusive: 18.4 µM [falling, partial curve, poor fit] | –
10 | CC(C)(C)C1CCc2c(sc(NC(=O)CCC(=O)O)c2C(=O)Nc2ccccc2C(F)(F)F)C1 (stereo unspecified) | inconclusive: 29.1 µM [falling, partial curve, poor fit] | –
11 | Cc1ccccc1C(=O)Nc1ccc2nc(Nc3cccc(C(F)(F)F)c3)cc(C)c2c1 | inconclusive: 9.2 µM [falling, partial curve] | –
12 | Cc1nnc(SCC(=O)NC2CCCCC2)n1C1CCCCC1 | – | inactive: 1.05%
13 | Cc1cc(C(F)(F)F)nc(SCC(=O)Nc2c(C)n(C)n(-c3ccccc3)c2=O)n1 | inconclusive: 4.11 µM [falling, partial curve, poor fit] | –
14 | C=CCN1C(c2ccc(Br)cc2)=CS/C1=C(\C#N)c1nnc(N2CCOCC2)n1-c1ccccc1 | inconclusive: 29.1 µM [falling, partial curve, poor fit] | –
15 | COc1ccc(-c2noc(CSc3nnc(Cc4ccccc4)n3-c3ccc(Cl)cc3)n2)cc1 | inconclusive: 16.4 µM [falling, single point] | –
16 | Cc1cccc(N(Cc2ccccc2F)S(C)(=O)=O)c1 | inconclusive: 32.6 µM [activator, partial curve, poor fit] | –
17 | CCOC(=O)c1csc(NC(=O)c2ccccc2)n1 | – | inactive: 6.87%
18 | C/C=C/C(=O)[C@@H](C)[C@@H](/C=C/C[Si](C)(C)C)C(C)C | – | inactive: 0.409%
19 | COc1ccccc1Nc1c2c(nc3ccc(NC(=O)c4cccc(OC)c4OC)cc13)CCCC2 | inconclusive: 23.1 µM [falling, single point] | –
20 | COc1ccc(-c2noc(CCCC(=O)NC3CCCC3)n2)cc1 | inconclusive: 18.4 µM [falling, single point] | –
21 | CCN(CC)S(=O)(=O)c1ccc(N=Nc2c(N)[nH]c(=O)[nH]c2=O)cc1 | inconclusive: 20.6 µM [falling, single point] | –

A different layout for part of the listing above.
Row	Structure (SMILES)	Potency	activity change, negative = cytotoxicity
6	COc1ccc(NC(=O)CSc2nc(O)c(C/C=C/c3ccccc3)c(=O)[nH]2)cc1	–	inactive: 3.13%
7	CCC(c1nnnn1CCc1ccccc1)N(Cc1ccco1)Cc1cc2c(C)ccc(C)c2[nH]c1=O (stereo unspecified)	inconclusive: 18.4 µM [falling, single point]	–
8	NC(=O)c1cc([N+](=O)[O-])ccc1NCCN1C(=O)c2ccc(C(=O)O)cc2C1=O	inconclusive: 23.1 µM [falling, single point]	–
9	CCN(CC(=O)Nc1ccc(NC(C)=O)cc1)C(=O)CCCOc1ccc(C(C)(C)C)cc1	inconclusive: 18.4 µM [falling, partial curve, poor fit]	–
10	CC(C)(C)C1CCc2c(sc(NC(=O)CCC(=O)O)c2C(=O)Nc2ccccc2C(F)(F)F)C1 (stereo unspecified)	inconclusive: 29.1 µM [falling, partial curve, poor fit]	–
11	Cc1ccccc1C(=O)Nc1ccc2nc(Nc3cccc(C(F)(F)F)c3)cc(C)c2c1	inconclusive: 9.2 µM [falling, partial curve]	–
12	Cc1nnc(SCC(=O)NC2CCCCC2)n1C1CCCCC1	–	inactive: 1.05%
13	Cc1cc(C(F)(F)F)nc(SCC(=O)Nc2c(C)n(C)n(-c3ccccc3)c2=O)n1	inconclusive: 4.11 µM [falling, partial curve, poor fit]	–
14	C=CCN1C(c2ccc(Br)cc2)=CS/C1=C(\C#N)c1nnc(N2CCOCC2)n1-c1ccccc1	inconclusive: 29.1 µM [falling, partial curve, poor fit]	–

(cont.)

Row | Structure (SMILES) | Potency | activity change, negative = cytotoxicity
22 | COc1ccc(C)cc1NC(=O)Nc1cnccn1 | inconclusive: 29.1 µM [activator, partial curve, poor fit] | –
23 | CCC(C(=O)c1ccc(O)cc1)c1ccccc1 (stereo unspecified) | inconclusive: 32.6 µM [falling, partial curve, poor fit] | –
24 | COc1cccc(C(=O)O/N=C(\N)c2ccccn2)c1 | – | inactive: -6.24%
25 | Oc1ccc(CCc2n[nH]c(=S)n2-c2ccc(F)cc2)cc1 | – | inactive: 1.4%
26 | O=C(NCc1cccnc1)/C(=C\c1ccc(-c2ccc(Cl)c(Cl)c2)o1)S(=O)(=O)c1ccccc1 | inconclusive: 20.6 µM [falling, single point] | –
27 | COc1cc2c(-c3ccc(O)cc3)nc3c(c(C)nn3-c3ccccc3)c2cc1OC | inconclusive: 16.4 µM [falling, partial curve, poor fit] | –
28 | Cc1cccc(N2CCN(C(=O)Cn3cnc4sc(C)c(S(=O)(=O)N5CCN(c6ncccn6)CC5)c4c3=O)CC2C)c1 (stereo unspecified) | – | inactive: -7.59%
29 | COc1ccc(Nc2nc(N3CCCC3)nc3ccccc23)c(OC)c1 | active: 18.4 µM | –
30 | COc1ccc(NC(=O)C(C)n2nnc3sc(-c4ccccc4)cc3c2=O)cc1Cl (stereo unspecified) | – | inactive: 0.583%
31 | N=c1n(CCN2CCCCC2)c2ccccc2n1CC(O)c1ccco1 (stereo unspecified) | inconclusive: 25.9 µM [falling, single point] | –
32 | Nn1c(SCC(=O)NCCc2ccc(F)cc2)nnc1C1CCCCC1 | inconclusive: 25.9 µM [activator, partial curve, poor fit] | –
33 | Brc1ccc(OCCCOc2cccc3cccnc23)cc1 | – | inactive: 10.9%
34 | Cc1ccc(Cn2c(C(=O)O)c(CNCc3cccs3)c3ccc(C)cc32)cc1 | inconclusive: 25.9 µM [falling, single point] | –
35 | Cc1nc2nc(-c3ccccc3)cn2nc1C | inconclusive: 20.6 µM [activator, partial curve, poor fit] | –
36 | O=C(CNC(=O)c1ccc(Cl)cc1)OC(C(=O)Nc1cc(C(F)(F)F)ccc1Cl)c1ccccc1 (stereo unspecified) | inconclusive: 20.6 µM [activator, partial curve, poor fit] | –
37 | CCN1C(=O)C(=Cc2cccc(OC)c2Oc2ccc([N+](=O)[O-])cc2[N+](=O)[O-])SC1=S | inconclusive: 25.9 µM [falling, single point] | –
38 | c1ccc(-c2nc3cc4ccccc4cc3[nH]2)nc1 | inconclusive: 3.26 µM [falling, partial curve, poor fit] | –
39 | COc1ccc(-c2oc(=O)c3cc(OC)c(OC)cc3c2C#CCCCO)cc1 | inconclusive: 23.1 µM [falling, partial curve] | –
40 | CCN(C(=O)c1cc(S(=O)(=O)N2CCc3ccccc32)cn1C)c1cccc(C)c1 | inconclusive: 18.4 µM [falling, single point] | –
41 | O=C(Nc1ccc(-c2nc3ccccc3o2)cc1)c1ccc2c(c1)OCO2 | inconclusive: 29.1 µM [falling, single point] | –
